Results: patent US11492338B2, “Furan surfactant compositions and methods” (SIRONIX RENEWABLES, INC., priority 2020, dated 2022)

Legend:
[1] = Ross Miles foam height, ASTM D1173
[2] = High shear foam height in distilled water, ASTM D319-88
[3] = Emulsion separation time, surfactant solution and soybean oil; details: 0.1 wt % surfactant, 20 mL each of surfactant solution and soybean oil
[4] = High shear foam loss in 100 ppm hard water solution
[5] = Stain removal index, hard set blood on cotton fabric; details: 1 minute wash, 0.1 wt % surfactant solution at 20° C.
[6] = Table 2, immediately after foam formation
[7] = Table 2, distilled water, after 5 minutes, 13,700 rpm, 0.1 wt % surfactant
[8] = Table 2, distilled water, immediately after foam formation, 13,700 rpm, 0.1 wt % surfactant
[9] = Table 2, percent of high shear foam height lost in 100 ppm hard water solution
[10] = Table 3, immediately after foam formation
[11] = Table 3, first value (immediately after foam formation)
[12] = Table 3, second value (after 5 minutes)

Structure (SMILES) | Ross Miles Foam Height ([1]; Table 2, after 5 minutes) [mm] | Ross Miles Foam Height [1, 6] [mm] | High Shear Foam Height [2, 7] [mm] | High Shear Foam Height [2, 8] [mm] | Average Emulsion Separation Time, 15 mL [3] [min] | High Shear Foam Loss [4, 9] [%] | Ross Miles Foam Height ([1]; Table 3, after 5 minutes) [mm] | Ross Miles Foam Height [1, 10] [mm] | High Shear Foam Height [2, 11] [mm] | High Shear Foam Height [2, 12] [mm] | Stain Removal Index: Hard Set Blood on Cotton Fabric [5] | High Shear Foam Loss ([4]; Table 3, hard water)
CCCCCCCCCCCC(=O)c1cc(S(=O)(=O)O)c(C)o1 [Ca^2+] | 170 | 180 | 51 | 53 | >20 | 11 | – | – | – | – | – | –
CCCCCCCCCCCC(=O)c1cc(S(=O)(=O)[O-])c(C)o1.[Li+] [Li^+] | 120 | 135 | 84 | 85 | 3.7 | 28 | – | – | – | – | – | –
CCCCCCCCCCCC(=O)c1cc(S(=O)(=O)[O-])c(C)o1.CCCCCCCCCCCC(=O)c1cc(S(=O)(=O)[O-])c(C)o1.[Mg+2] [Mg^2+] | 175 | 185 | 41 | 43 | – | 16 | – | – | – | – | – | –
CCCCCCCCCCCC(=O)c1cc(S(=O)(=O)O)c(C)o1.N [NH4^+] | 55 | 75 | 8 | 23 | 6.1 | 0 | – | – | – | – | – | –
CCCCCCCCCCCC(=O)c1ccc(S(=O)(=O)[O-])o1.[Na+] [Na^+ OFS-12-1/0] | – | – | – | – | 3.6 | – | 112 | 138 | 70 | 65 | 20.3 | 0^6%
CCCCCCCCCCCC(=O)c1cc(S(=O)(=O)[O-])c(C)o1.[Na+] [Na^+] | 132 | 134 | 69 | 71 | 4.4 | 30 | 132 | 134 | 70 | 65 | 13.2 | 17^ %
CCCCCCCCCCCCOCCOCCOCCOS(=O)(=O)[O-].[Na+] [SLES, sodium lauryl ether sulfate, reference compound] | 150 | 160 | 48 | 50 | – | 42 | – | – | – | – | – | –
